According to the supplement of paper PMC6411743:
± gives the standard deviation of the averaged measurements. Some of the results follow.

Protein sequences, listed by entry. Tags and fused reporters are not part of them. Lines headed by an entry give the natural chain unless they say otherwise; changes in a name come on top.
UniProt Q9NPQ8: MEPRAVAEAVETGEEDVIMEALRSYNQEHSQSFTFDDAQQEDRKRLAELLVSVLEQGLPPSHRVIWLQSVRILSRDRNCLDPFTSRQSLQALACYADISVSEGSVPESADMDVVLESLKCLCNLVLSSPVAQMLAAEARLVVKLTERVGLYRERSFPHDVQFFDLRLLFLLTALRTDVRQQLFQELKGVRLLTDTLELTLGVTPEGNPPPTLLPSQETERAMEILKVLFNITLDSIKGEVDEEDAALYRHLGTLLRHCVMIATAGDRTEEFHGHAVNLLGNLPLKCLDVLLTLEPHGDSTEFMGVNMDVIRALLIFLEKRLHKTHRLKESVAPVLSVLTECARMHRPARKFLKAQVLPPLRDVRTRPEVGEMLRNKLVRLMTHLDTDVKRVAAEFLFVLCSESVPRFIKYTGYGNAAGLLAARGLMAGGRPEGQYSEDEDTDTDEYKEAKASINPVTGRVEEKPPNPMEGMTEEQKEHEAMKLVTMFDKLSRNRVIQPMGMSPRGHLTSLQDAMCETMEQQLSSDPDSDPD
UniProt Q9H814, whole entry: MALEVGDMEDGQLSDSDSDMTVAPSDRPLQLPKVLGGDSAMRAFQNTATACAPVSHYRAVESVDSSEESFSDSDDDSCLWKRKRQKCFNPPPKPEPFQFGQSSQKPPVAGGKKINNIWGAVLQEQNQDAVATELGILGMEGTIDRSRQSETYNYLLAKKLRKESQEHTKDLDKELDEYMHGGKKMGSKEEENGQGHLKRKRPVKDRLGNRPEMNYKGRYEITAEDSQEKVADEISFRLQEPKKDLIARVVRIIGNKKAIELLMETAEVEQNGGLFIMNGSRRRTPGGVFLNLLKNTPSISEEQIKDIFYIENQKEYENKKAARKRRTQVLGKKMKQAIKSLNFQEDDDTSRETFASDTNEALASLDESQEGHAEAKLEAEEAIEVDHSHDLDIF
UniProt Q9H0S4: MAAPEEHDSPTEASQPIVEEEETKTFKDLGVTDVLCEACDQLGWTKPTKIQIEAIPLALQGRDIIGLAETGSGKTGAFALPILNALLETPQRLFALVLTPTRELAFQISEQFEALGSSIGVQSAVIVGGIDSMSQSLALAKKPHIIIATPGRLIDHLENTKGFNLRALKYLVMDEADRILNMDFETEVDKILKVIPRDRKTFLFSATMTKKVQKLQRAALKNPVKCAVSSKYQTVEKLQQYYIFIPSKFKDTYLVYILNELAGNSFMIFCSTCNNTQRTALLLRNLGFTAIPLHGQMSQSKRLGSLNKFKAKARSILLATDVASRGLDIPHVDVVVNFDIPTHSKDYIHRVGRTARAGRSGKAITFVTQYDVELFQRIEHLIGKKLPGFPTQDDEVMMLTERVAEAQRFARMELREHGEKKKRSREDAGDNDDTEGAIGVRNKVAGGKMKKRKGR
UniProt Q9HB90, whole entry: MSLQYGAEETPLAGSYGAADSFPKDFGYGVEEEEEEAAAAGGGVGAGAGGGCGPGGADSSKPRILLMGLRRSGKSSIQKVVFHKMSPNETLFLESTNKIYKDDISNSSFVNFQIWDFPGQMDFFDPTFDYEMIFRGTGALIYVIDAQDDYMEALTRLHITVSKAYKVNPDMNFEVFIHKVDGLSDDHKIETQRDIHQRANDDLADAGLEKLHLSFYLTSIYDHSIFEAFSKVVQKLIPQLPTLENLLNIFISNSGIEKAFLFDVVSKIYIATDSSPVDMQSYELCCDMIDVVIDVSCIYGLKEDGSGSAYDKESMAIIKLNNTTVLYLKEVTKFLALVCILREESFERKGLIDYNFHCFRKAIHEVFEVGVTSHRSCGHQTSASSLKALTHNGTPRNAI
UniProt Q9H467: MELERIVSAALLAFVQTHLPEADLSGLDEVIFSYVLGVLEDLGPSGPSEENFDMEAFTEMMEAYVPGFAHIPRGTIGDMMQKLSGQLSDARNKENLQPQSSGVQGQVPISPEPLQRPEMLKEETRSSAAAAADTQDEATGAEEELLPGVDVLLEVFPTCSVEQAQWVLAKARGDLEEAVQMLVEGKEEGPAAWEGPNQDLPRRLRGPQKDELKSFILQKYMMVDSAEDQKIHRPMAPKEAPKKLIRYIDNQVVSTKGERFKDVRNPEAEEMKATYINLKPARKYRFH

Compound: Nc1nc2c(ncn2[C@@H]2O[C@H](COP(=O)(O)OP(=O)(O)OP(=O)(O)O)[C@@H](O)[C@H]2O)c(=O)[nH]1 [guanosine triphosphate]
Experiment: NP40-soluble protein abundance relative to vehicle (solubility fold change) (ratio); higher = more soluble protein in presence of GTP
Method: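 Solubility proteome profiling in Jurkat crude lysate. Lysate was treated with Mg-GTP (0.1-10 mM) for 10 min at room temperature and 3 min at 37 °C, then solubilised with 0.8% NP40 and benzonase, followed by ultracentrifugation. Proteins were quantified by TMT10 LC-MS/MS; the value is the NP40-soluble abundance relative to the NP40-processed vehicle, from 3 independent experiments.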

| Target | NP40-soluble protein abundance (concentration: 0.1mM) | NP40-soluble protein abundance (concentration: 0.5mM) | NP40-soluble protein abundance (concentration: 1mM) | NP40-soluble protein abundance (concentration: 2mM) | NP40-soluble protein abundance (concentration: 4mM) | NP40-soluble protein abundance (concentration: 6mM) | NP40-soluble protein abundance (concentration: 8mM) | NP40-soluble protein abundance (concentration: 10mM) |
| --- | --- | --- | --- | --- | --- | --- | --- | --- |
| UniProt Q9NPQ8 and related entries | 1.03 ± 0.034 | 0.996 ± 0.029 | 1 ± 0.03 | 0.974 ± 0.057 | 0.9203 ± 0.0087 | 0.935 ± 0.036 | 0.925 ± 0.016 | 0.912 ± 0.021 |
| PHAX (UniProt Q9H814) | 0.991 ± 0.068 | 0.987 ± 0.073 | 1.01 ± 0.087 | 0.991 ± 0.07 | 0.976 ± 0.061 | 1.01 ± 0.067 | 0.998 ± 0.043 | 1.03 ± 0.077 |
| DDX47 (UniProt Q9H0S4) | 1.1 ± 0.045 | 1.08 ± 0.057 | 1.02 ± 0.068 | 1.12 ± 0.1 | 1.34 ± 0.1 | 1.39 ± 0.066 | 1.5 ± 0.057 | 1.7 ± 0.12 |
| RRAGC (UniProt Q9HB90) | 1.02 ± 0.031 | 1.03 ± 0.053 | 1 ± 0.025 | 1.02 ± 0.028 | 0.927 ± 0.041 | 0.989 ± 0.048 | 0.993 ± 0.052 | 0.969 ± 0.032 |
| CUEDC2 (UniProt Q9H467) | 0.911 ± 0.065 | 0.867 ± 0.062 | 0.97 ± 0.012 | 0.919 ± 0.04 | 0.934 ± 0.039 | 0.891 ± 0.036 | 0.901 ± 0.099 | 0.943 ± 0.05 |
